According to the supplement of paper PMC10849652:
Some of the results follow.

By UniProt entry, the sequences of proteins in these tests, tags left out. Where a name states a change or a piece, a line headed by the entry shows the natural chain unless it says otherwise.
UniProt P32321: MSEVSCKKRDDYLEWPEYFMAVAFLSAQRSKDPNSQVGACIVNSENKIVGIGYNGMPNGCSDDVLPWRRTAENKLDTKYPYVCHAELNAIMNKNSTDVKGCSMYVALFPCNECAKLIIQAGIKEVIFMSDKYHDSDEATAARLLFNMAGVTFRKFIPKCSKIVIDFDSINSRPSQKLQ
UniProt P17812: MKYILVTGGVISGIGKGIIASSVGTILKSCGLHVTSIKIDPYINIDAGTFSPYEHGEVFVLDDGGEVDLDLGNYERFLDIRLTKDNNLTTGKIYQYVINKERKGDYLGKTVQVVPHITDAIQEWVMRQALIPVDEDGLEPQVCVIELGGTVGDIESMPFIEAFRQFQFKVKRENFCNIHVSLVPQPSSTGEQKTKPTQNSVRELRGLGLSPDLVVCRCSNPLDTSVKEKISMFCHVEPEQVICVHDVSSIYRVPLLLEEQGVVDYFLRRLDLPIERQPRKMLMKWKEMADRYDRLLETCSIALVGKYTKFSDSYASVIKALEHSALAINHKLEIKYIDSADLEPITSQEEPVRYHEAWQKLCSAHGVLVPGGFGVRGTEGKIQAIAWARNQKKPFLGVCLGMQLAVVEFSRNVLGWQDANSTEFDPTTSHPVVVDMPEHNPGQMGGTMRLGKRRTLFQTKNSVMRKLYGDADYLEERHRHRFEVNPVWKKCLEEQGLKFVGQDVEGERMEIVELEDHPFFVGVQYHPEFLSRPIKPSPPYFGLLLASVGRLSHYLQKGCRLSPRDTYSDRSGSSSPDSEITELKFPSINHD
UniProt P01034: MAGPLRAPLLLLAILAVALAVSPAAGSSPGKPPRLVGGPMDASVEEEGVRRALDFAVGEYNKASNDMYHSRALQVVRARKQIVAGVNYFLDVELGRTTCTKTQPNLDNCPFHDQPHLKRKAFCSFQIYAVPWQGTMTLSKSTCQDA
UniProt P27707: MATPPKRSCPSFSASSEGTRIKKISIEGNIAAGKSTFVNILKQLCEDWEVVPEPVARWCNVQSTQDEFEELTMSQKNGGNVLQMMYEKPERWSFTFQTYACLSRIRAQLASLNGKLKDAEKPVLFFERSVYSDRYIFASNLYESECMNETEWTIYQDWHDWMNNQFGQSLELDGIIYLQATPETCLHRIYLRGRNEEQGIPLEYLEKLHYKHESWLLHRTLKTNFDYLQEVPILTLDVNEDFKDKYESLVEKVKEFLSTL
UniProt Q9Y5B0: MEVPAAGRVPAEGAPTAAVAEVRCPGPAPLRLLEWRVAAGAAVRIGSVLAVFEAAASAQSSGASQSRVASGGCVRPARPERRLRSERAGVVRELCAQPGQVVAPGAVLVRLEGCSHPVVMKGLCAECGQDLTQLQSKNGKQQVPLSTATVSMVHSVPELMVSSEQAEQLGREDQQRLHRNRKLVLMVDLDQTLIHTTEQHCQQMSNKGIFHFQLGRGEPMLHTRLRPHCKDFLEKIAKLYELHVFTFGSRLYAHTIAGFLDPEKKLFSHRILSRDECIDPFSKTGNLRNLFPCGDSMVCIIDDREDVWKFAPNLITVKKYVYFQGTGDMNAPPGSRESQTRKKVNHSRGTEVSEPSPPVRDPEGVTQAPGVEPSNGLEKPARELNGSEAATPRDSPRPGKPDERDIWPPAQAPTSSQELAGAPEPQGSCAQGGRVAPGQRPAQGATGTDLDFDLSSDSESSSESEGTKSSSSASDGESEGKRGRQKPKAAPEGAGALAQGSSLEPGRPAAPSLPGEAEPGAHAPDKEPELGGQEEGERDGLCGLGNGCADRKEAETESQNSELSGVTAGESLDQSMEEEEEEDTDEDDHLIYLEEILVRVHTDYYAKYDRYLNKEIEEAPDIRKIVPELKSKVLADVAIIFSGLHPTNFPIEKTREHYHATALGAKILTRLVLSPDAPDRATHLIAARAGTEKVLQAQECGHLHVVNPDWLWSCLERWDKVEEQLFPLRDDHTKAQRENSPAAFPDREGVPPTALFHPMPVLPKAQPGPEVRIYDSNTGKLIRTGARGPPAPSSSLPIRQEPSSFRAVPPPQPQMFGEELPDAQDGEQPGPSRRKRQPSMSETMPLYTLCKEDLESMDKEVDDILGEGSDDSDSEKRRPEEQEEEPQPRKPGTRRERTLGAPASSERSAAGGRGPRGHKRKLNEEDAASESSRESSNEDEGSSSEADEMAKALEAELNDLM
UniProt P61803: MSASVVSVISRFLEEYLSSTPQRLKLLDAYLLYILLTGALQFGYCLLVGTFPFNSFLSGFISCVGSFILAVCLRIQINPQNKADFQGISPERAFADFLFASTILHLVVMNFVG
UniProt Q96C86: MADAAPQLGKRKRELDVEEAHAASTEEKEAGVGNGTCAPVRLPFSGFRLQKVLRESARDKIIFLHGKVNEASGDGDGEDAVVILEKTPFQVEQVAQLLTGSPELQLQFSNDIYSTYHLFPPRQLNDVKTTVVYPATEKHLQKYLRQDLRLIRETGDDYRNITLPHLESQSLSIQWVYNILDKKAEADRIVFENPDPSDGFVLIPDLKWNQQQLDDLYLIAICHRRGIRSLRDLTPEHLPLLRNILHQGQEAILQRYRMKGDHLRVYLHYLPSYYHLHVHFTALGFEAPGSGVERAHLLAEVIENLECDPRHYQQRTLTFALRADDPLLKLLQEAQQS
UniProt P04080: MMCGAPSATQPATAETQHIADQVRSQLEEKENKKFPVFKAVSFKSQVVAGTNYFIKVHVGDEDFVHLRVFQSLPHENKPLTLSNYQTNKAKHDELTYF
UniProt Q8WVC6: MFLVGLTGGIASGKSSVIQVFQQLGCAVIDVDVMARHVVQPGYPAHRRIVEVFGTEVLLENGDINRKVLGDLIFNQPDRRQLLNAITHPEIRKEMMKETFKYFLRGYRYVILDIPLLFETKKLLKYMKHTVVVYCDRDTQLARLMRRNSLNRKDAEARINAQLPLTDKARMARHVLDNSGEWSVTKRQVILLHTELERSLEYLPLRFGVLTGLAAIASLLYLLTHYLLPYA
UniProt P0DMU9: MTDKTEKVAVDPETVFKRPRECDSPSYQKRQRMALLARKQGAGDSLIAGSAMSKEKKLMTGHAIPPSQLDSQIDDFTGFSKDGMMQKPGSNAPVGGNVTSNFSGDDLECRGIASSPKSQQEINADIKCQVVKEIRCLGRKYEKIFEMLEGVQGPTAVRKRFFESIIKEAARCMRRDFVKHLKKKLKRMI
UniProt P53634: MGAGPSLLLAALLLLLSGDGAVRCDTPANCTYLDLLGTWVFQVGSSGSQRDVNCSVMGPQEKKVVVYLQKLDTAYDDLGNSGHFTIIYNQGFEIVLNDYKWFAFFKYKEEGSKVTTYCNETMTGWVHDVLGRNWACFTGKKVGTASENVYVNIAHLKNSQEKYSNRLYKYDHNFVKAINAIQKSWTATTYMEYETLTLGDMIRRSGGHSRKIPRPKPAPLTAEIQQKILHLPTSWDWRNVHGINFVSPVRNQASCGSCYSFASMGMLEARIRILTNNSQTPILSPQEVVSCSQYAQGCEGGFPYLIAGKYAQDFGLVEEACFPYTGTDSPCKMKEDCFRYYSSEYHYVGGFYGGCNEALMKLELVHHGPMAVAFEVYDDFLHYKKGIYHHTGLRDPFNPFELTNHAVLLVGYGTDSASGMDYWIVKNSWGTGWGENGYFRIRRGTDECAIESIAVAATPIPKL
UniProt P32929, whole entry, looked up: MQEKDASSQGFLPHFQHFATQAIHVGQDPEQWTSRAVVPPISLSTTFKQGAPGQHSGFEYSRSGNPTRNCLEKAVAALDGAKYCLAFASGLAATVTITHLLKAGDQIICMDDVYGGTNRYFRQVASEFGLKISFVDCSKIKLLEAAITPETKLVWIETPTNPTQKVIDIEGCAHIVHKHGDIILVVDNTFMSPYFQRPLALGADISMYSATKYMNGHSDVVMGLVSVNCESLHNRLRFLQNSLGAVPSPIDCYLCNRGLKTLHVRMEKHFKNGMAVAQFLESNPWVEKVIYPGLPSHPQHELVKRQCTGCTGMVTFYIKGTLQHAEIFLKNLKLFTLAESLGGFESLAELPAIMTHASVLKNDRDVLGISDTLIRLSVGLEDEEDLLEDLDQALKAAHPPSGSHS
UniProt P26232: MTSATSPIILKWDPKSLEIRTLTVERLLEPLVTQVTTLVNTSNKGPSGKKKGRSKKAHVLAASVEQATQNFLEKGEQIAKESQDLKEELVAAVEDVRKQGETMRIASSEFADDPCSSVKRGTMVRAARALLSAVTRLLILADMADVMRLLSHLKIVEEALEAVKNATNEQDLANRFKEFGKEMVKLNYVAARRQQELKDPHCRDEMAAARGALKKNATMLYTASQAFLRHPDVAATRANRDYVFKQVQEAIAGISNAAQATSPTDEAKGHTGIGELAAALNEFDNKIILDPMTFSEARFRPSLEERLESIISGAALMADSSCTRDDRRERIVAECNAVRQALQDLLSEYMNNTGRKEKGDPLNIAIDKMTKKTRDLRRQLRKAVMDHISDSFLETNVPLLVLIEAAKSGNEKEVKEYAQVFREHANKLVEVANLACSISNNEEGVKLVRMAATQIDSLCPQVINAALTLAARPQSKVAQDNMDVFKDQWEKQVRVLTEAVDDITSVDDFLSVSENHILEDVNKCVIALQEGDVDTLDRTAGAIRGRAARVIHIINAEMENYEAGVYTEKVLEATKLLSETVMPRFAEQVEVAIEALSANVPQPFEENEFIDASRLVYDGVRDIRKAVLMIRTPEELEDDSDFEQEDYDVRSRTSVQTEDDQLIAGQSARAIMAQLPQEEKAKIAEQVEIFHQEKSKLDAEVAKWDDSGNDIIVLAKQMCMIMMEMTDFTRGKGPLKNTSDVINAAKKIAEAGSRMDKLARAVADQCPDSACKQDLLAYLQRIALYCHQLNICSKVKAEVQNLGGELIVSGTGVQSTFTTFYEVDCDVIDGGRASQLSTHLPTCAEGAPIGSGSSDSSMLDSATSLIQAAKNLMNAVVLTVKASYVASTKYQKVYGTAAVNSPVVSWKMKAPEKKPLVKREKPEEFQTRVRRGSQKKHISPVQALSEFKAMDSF
UniProt P14868: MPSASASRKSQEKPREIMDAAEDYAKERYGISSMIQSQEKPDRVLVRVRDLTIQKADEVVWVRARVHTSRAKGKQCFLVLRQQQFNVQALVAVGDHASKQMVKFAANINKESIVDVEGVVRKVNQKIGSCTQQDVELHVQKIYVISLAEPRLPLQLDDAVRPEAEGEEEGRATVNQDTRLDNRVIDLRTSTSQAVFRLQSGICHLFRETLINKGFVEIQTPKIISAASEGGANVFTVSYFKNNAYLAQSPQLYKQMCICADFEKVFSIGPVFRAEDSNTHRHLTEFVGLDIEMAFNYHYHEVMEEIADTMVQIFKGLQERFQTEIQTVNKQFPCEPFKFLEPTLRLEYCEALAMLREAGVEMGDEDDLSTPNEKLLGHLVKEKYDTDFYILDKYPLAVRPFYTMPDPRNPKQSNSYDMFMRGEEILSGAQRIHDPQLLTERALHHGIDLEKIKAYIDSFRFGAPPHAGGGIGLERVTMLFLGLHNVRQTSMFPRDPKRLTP
UniProt Q9BQA9: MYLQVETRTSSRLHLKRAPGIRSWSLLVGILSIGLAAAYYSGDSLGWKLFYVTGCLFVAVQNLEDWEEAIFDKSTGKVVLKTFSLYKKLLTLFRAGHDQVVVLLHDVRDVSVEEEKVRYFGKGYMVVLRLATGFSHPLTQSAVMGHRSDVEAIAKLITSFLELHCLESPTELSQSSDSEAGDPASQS
UniProt P35221: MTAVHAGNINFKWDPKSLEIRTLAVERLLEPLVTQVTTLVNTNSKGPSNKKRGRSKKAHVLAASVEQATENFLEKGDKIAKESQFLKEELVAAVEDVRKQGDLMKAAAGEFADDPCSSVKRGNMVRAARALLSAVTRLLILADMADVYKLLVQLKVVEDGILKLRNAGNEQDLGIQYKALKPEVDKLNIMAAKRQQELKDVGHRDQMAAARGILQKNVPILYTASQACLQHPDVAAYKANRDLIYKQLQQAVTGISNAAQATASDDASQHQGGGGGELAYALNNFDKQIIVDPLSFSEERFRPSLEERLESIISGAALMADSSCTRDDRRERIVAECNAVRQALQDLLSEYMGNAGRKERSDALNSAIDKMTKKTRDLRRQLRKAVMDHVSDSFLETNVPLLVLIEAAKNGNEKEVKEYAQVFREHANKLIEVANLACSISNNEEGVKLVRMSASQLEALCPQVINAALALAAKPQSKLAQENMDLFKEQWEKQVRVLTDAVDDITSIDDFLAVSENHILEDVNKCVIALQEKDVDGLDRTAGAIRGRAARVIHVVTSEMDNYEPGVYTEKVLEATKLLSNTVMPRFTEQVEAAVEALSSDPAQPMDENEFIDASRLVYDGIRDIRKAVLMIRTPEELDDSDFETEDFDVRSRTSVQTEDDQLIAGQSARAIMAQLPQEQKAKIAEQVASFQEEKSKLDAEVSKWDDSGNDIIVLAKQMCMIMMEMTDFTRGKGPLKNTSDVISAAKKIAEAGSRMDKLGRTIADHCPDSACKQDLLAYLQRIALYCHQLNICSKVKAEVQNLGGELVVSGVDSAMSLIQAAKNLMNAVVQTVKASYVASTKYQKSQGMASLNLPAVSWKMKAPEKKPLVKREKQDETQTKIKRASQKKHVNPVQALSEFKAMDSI

These targets were tested with C[C@@H]1COCCN1C2=NC(=NC(=C2)C3(CC3)S(=O)(=O)C)C4=C5C=CNC5=CC=C4 (assay: log2 fold change, soluble protein after heating vs DMSO (PISA); higher = thermal stabilisation; K562 cells, 10 uM, 30 min; active = over 0.2 and 3.5 SD of the protein, either way, in both replicates (recomputed)).
Method in brief: (§1)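 Thermal stability values are relative to control samples and come from duplicates. They are expressed as log2 fold changes. For measurement, K562 cells (2×10^6 cells/mL) received 10 μM compound for 30 min, and aliquots were heated for 3 min over 48°C-58°C, pooled, and extracted at 4°C in PBS with 0.5% NP-40. Soluble protein, the supernatant after 21,000xg for 90 min, was quantified by TMTpro 16plex LC-MS/MS with equalised channel sums.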

log2 fold change, inactive:
DCTD isoform 2 (UniProt P32321) 0.091
CTPS1 (UniProt P17812) 0.045
CYB5R2 (UniProt Q6BCY4) 0.054
CYB5B, A0A499FJ32 0.476
CST3 (UniProt P01034) -0.036
DCK (UniProt P27707) -0.052
CTDP1 (UniProt Q9Y5B0) -0.082
CTU1 (UniProt Q7Z7A3) 0.081
DAD1 (UniProt P61803) 0.021
CTBP1 (UniProt Q13363) 0.058
DCPS (UniProt Q96C86) -0.029
CSTB (UniProt P04080) 0.029
DBN1 isoform 3 (UniProt Q16643) -0.075
DCAKD (UniProt Q8WVC6) 0.004
DBR1 (UniProt Q9UK59) 0.061
CT45A10 (UniProt P0DMU9) -0.348
DAP3 (UniProt P51398) 0.029

What follows are targets tested with C[C@H](C1=CC=C(C=C1)C(=O)NC2=C3C=CNC3=NC=C2)N in the same assay as above.
Method in brief: as §1

log2 fold change, inactive:
CUEDC2 (UniProt Q9H467) -0.113
DCTN3 (UniProt O75935) 0.022
CWC25 (UniProt Q9NXE8) 0.401
D2HGDH (UniProt Q8N465) 0.012
CTSC (UniProt P53634) -0.062
CTCF (UniProt P49711) 0.279
CYP20A1 (UniProt Q6UW02) -0.038
CTH (UniProt P32929) -0.103
CTNNA2 (UniProt P26232) -0.055
CTBP2 isoform 2 (UniProt P56545) -0.062
CSRP1 (UniProt P21291) -0.079
CSTF1 (UniProt Q05048) 0.009
DARS (UniProt P14868) 0.027
CXorf56 (UniProt Q9H5V9) -0.041
CYFIP2 (UniProt Q96F07) -0.063
DCAF15 (UniProt Q66K64) -0.007
CTNND1 (UniProt O60716) 0.432
DCAF1 (UniProt Q9Y4B6) -0.033
DCUN1D4 isoform 3 (UniProt Q92564) 0.019
CYBC1 (UniProt Q9BQA9) -0.029
CTNNA1 isoform 2 (UniProt P35221) -0.056
DBT (UniProt P11182) 0.054
CUL5 (UniProt Q93034) -0.046
DCTD isoform 2 (UniProt P32321) -0.017
CTPS1 (UniProt P17812) -0.075
CYB5R2 (UniProt Q6BCY4) 0.053
CYB5B, A0A499FJ32 0.138
CST3 (UniProt P01034) 0.017
DCK (UniProt P27707) -0.065
CTDP1 (UniProt Q9Y5B0) -0.056
CTU1 (UniProt Q7Z7A3) -0.032
DAD1 (UniProt P61803) -0.109
CTBP1 (UniProt Q13363) -0.073
DCPS (UniProt Q96C86) -0.014
CSTB (UniProt P04080) -0.069
DBN1 isoform 3 (UniProt Q16643) 0.044
DCAKD (UniProt Q8WVC6) 0.005
DBR1 (UniProt Q9UK59) -0.014
CT45A10 (UniProt P0DMU9) 0
DAP3 (UniProt P51398) 0.197

What follows are targets tested with C[C@H](Nc1ncnc2nc[nH]c12)c1cc2cccc(Cl)c2c(=O)n1-c1ccccc1 [duvelisib] in the same assay as above.
Method in brief: as §1

log2 fold change, inactive:
DCTN3 (UniProt O75935) 0.022
D2HGDH (UniProt Q8N465) -0.02
CTCF (UniProt P49711) -0.224
CYP20A1 (UniProt Q6UW02) 0.045
CTH (UniProt P32929) 0
CTNNA2 (UniProt P26232) 0.076
CTBP2 isoform 2 (UniProt P56545) 0.034
CSRP1 (UniProt P21291) -0.001
CSTF1 (UniProt Q05048) 0.116
DARS (UniProt P14868) -0.022
CXorf56 (UniProt Q9H5V9) 0.034
CYFIP2 (UniProt Q96F07) 0.035
DCAF15 (UniProt Q66K64) 0.075
CTNND1 (UniProt O60716) -0.06
DCAF1 (UniProt Q9Y4B6) 0.03
DCUN1D4 isoform 3 (UniProt Q92564) 0.129
CYBC1 (UniProt Q9BQA9) 0.101
CTNNA1 isoform 2 (UniProt P35221) 0.013
CUL5 (UniProt Q93034) 0.024
DCTD isoform 2 (UniProt P32321) 0.04
CTPS1 (UniProt P17812) 0.046
CYB5R2 (UniProt Q6BCY4) 0.022
CYB5B, A0A499FJ32 0.104
CST3 (UniProt P01034) 0.052
DCK (UniProt P27707) -0.006
CTDP1 (UniProt Q9Y5B0) 0.076
DAD1 (UniProt P61803) -0.072
CTBP1 (UniProt Q13363) 0.002
DCPS (UniProt Q96C86) 0
CSTB (UniProt P04080) 0.024
DCAKD (UniProt Q8WVC6) 0.138
CT45A10 (UniProt P0DMU9) -0.175
DAP3 (UniProt P51398) -0.008
